Values from PubChem BioAssay AID652259 (Drosophila RNAi Screening Center, 2013)
The screen tested about 22,000 reagents; this is an unselected part of those with a known target gene and a result. In the full data, 233 (1.1%) are marked active. 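Light values are raw, unnormalised plate reads; the ratio scores behind the reporter calls were not deposited.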 Entries without a mark were called inactive. Reagents against one gene are numbered here. A plus sign joins genes that one reagent is predicted to hit. Reagent sequences are not shown. Not given: the amount of reagent, the time to read-out, the dose of the treatment.

- Test: 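Knock-downs that push a Wingless-driven reporter up or down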 (primary screen)
- System: Drosophila clone 8 imaginal disc epithelial cells
- Reagents: long dsRNA against Drosophila genes
- Challenge: pathway stimulated by co-transfected Wingless expression plasmid
- Measurement: 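Dual luciferase reads per well after Wingless plasmid stimulation: reporter firefly light and Renilla control light; activity is firefly divided by Renilla, a ratio not deposited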
- Scale: firefly reporter light: higher = more Wg reporter light, before normalisation; Renilla control light: higher = more transfected or surviving cells
- Hit rule: 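Strong candidates differ from their plate mean by at least two out of four per-plate statistical tests; weak candidates meet just one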
- Meaning of the calls: active = candidate regulator (raises or lowers reporter); inactive = not a candidate

What did the screen give for CG17111?
firefly reporter light, replicate 1: 18304; Renilla control light, replicate 1: 15309

With Svil (Supervillin) #1, how do the results read?
firefly reporter light, replicate 1: 3985; Renilla control light, replicate 1: 1616

With Svil (Supervillin) #2, what was measured?
firefly reporter light, replicate 1: 15335; Renilla control light, replicate 1: 3468

For Svil (Supervillin) #3, how do the results read?
firefly reporter light, replicate 1: 7512; Renilla control light, replicate 1: 2848

Which result is listed for Svil (Supervillin) #4?
reporter change call, replicate 1: Wg reporter activity raised; firefly reporter light, replicate 1: 6172; Renilla control light, replicate 1: 1126

With Svil (Supervillin) #5, what was measured?
firefly reporter light, replicate 1: 4183; Renilla control light, replicate 1: 2466

What did the screen give for CG14237?
firefly reporter light, replicate 1: 6290; Renilla control light, replicate 1: 3104

For Pis (Phosphatidylinositol synthase), what was measured?
firefly reporter light, replicate 1: 25325; Renilla control light, replicate 1: 10984

What is on record for CG17140 + CG17139 #1?
firefly reporter light, replicate 1: 3126; firefly reporter light, replicate 2: 4211; Renilla control light, replicate 1: 1095; Renilla control light, replicate 2: 2662

For CG17140 + CG17139 #2, how do the results read?
firefly reporter light, replicate 1: 3351; firefly reporter light, replicate 2: 7808; Renilla control light, replicate 1: 1200; Renilla control light, replicate 2: 3600

For pnr (pannier), what does the deposit list?
firefly reporter light, replicate 1: 3524; firefly reporter light, replicate 2: 9031; Renilla control light, replicate 1: 1008; Renilla control light, replicate 2: 3392

Which result is listed for CG31556 (retired record) #1?
firefly reporter light, replicate 1: 4705; Renilla control light, replicate 1: 2053

With CG31556 (retired record) #2, what was measured?
firefly reporter light, replicate 1: 7.23e5; firefly reporter light, replicate 2: 7.38e5; Renilla control light, replicate 1: 3.58e5; Renilla control light, replicate 2: 3.20e5

3 neighbouring reagents from above:
Svil (Supervillin) #5: firefly reporter light, replicate 1 = 4183; Renilla control light, replicate 1 = 2466
CG14237: firefly reporter light, replicate 1 = 6290; Renilla control light, replicate 1 = 3104
Pis (Phosphatidylinositol synthase): firefly reporter light, replicate 1 = 25325; Renilla control light, replicate 1 = 10984

Further results:
For teq (Tequila) #1, what does the deposit list?
firefly reporter light, replicate 1: 1656; firefly reporter light, replicate 2: 7520; Renilla control light, replicate 1: 1549; Renilla control light, replicate 2: 2720

For teq (Tequila) #2, what was measured?
firefly reporter light, replicate 1: 3072; firefly reporter light, replicate 2: 6251; Renilla control light, replicate 1: 1627; Renilla control light, replicate 2: 2808

How did the screen score teq (Tequila) #3?
firefly reporter light, replicate 1: 2145; firefly reporter light, replicate 2: 10976; Renilla control light, replicate 1: 1418; Renilla control light, replicate 2: 3301

For Ppt2 (Palmitoyl-protein Thioesterase 2), what does the deposit list?
firefly reporter light, replicate 1: 9421; Renilla control light, replicate 1: 2922

What is on record for dsd (distracted) #1?
firefly reporter light, replicate 1: 6586; Renilla control light, replicate 1: 2257

Which result is listed for dsd (distracted) #2?
firefly reporter light, replicate 1: 3478; firefly reporter light, replicate 2: 8673; Renilla control light, replicate 1: 1397; Renilla control light, replicate 2: 2912

With Trim9 (Tripartite motif containing 9), how do the results read?
firefly reporter light, replicate 1: 1725; firefly reporter light, replicate 2: 7049; Renilla control light, replicate 1: 457; Renilla control light, replicate 2: 2880

With CG6073 #1, what was measured?
firefly reporter light, replicate 1: 3929; firefly reporter light, replicate 2: 10124; Renilla control light, replicate 1: 1639; Renilla control light, replicate 2: 3745

What is on record for CG6073 #2?
firefly reporter light, replicate 1: 3.95e5; firefly reporter light, replicate 2: 3.83e5; Renilla control light, replicate 1: 2.02e5; Renilla control light, replicate 2: 1.62e5

For CG11883, what does the deposit list?
firefly reporter light, replicate 1: 9461; Renilla control light, replicate 1: 3552

With CG9287 #1, what does the deposit list?
firefly reporter light, replicate 1: 2969; firefly reporter light, replicate 2: 8835; Renilla control light, replicate 1: 932; Renilla control light, replicate 2: 3703

How did the screen score CG9287 #2?
firefly reporter light, replicate 1: 5.30e5; firefly reporter light, replicate 2: 5.05e5; Renilla control light, replicate 1: 2.15e5; Renilla control light, replicate 2: 2.61e5

For Phb1 (Prohibitin 1), what does the deposit list?
firefly reporter light, replicate 1: 6804; Renilla control light, replicate 1: 2689

For Pdss2 (Decaprenyl diphosphate synthase subunit 2), what was measured?
firefly reporter light, replicate 1: 2631; Renilla control light, replicate 1: 971

How did the screen score CG32628 (retired record)?
firefly reporter light, replicate 1: 19976; Renilla control light, replicate 1: 11174

For shi (shibire), what was measured?
firefly reporter light, replicate 1: 2744; firefly reporter light, replicate 2: 12678; Renilla control light, replicate 1: 571; Renilla control light, replicate 2: 1584

What did the screen give for CG13562?
firefly reporter light, replicate 1: 3725; firefly reporter light, replicate 2: 9402; Renilla control light, replicate 1: 576; Renilla control light, replicate 2: 2598

How did the screen score Polr3C (RNA polymerase III subunit C)?
firefly reporter light, replicate 1: 5248; Renilla control light, replicate 1: 2512

Which result is listed for Acp24A4 (Accessory gland protein 24A4)?
firefly reporter light, replicate 1: 4.64e5; firefly reporter light, replicate 2: 5.77e5; Renilla control light, replicate 1: 1.66e5; Renilla control light, replicate 2: 1.91e5
